Experimental data taken from PubChem BioAssay AID493014 (National Center for Advancing Translational Sciences (NCATS), 2011).
In all, about 340,000 compounds went through this assay and about 170 (0.05%) were called active. The shares of active, inactive and inconclusive entries below differ from those in the screen. The call rests on the fitted dose curve; in most records, active means well fitted inhibition curve with a large enough effect in the signal ratio, with a control signal flat (not every such curve was filed as active); inconclusive means small, poorly fitted or top-dose-only effect, or effect the other way, or a change in a side signal; inactive means flat fitted curve, though single readings scatter; the % refers to the signal ratio. Where the call is inconclusive, the potency comes from a doubtful curve fit.

experiment: qHTS Assay to Find Inhibitors of Chronic Active B-Cell Receptor Signaling; settings: ABC-DLBCL IkBa-CBG/CBR reporter, luminescence ratio (green luciferase fused to IkBa over red control in TMD8 lymphoma cells), 4 h; activity change, negative = inhibition: at 46.1 µM (top of the series) unless noted;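 on activity change, negative = inhibition: plate controls were basal doxycycline-induced cells for no effect and cells given 10 µM MG132 for full effect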
Procedure, shortened: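 Cell line TMD8 (human ABC DLBCL), stably expressing tet-inducible CBG68-IkBa fusion and CBR; IMDM/0.5% FBS; cpd up to 46 uM; dox induction, 4 h, 37C/5% CO2; dual luminescence; green/red ratio; MG132 control.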
Potency means the concentration at half of the fitted maximal effect.

Structure (SMILES)	activity change, negative = inhibition	Potency
COC(=O)C1=C(C)N(C(C)C)C(=O)C1(NC(C)=O)C(F)(F)F (configuration not stated)	inconclusive: 2.74%	
C/C(=N\NC(=O)c1nn(C)cc1Br)c1ccc(NC(=O)c2ccncc2)cc1		inconclusive: 29.1 µM [falling, single point]
N#C/C(=C\c1ccc([N+](=O)[O-])cc1)C(=O)Nc1ccccc1O		inconclusive: 2.31 µM [falling, full curve]
COc1ccc(OCCSc2ncc(CO)n2C)cc1	inconclusive: 4.16%	
Cc1cc([N+](=O)[O-])nn1CC(=O)N/N=C/c1ccc(O)cc1O		inconclusive: 17.8 µM [falling, partial curve]
COc1cc(C(=O)OCc2ccccc2C#N)ccc1OCC(=O)N1CCOCC1	inconclusive: -0.0412%	
C=CC[C@@H](Cc1ccc(F)cc1)C(=O)OC[C@H]1CCCN1C(=O)[C@H](CC=C)CC(=O)N[C@H](CO)Cc1ccccc1	inconclusive: 4.62%	
CN1CCN(C(=O)/C(=C/c2ccco2)NC(=O)c2ccccc2)CC1	inconclusive: 6.52%	
Cc1cc(S(=O)(=O)N(Cc2ccccc2)Cc2ccc(N(C)C)cc2)ccc1-n1cnnn1	inconclusive: -8.61%	
Cc1nnc(SCc2ccc(C(=O)c3ccc(Cl)cc3)o2)n1-c1ccccc1	inconclusive: 4.23%	
COC(=O)C1=C(C)N=C2SCCC(=O)N2C1/C=C/c1ccccc1 (configuration not stated)	inconclusive: 6.61%	
COc1cccc(-c2nnc(SCc3ccccn3)n2C)c1	inconclusive: 11.5%	
CC(C)c1[nH]nc2c1C(c1ccco1)C(C#N)=C(N)O2 (configuration not stated)		inconclusive: 35.5 µM [cytotoxic, single point]
O=C(O)CSc1nnc(Cc2ccccc2)n1-c1ccccc1	inactive: 12.4%	
Cc1ccc(C)c(NC(=O)c2ccccc2O)c1	inconclusive: 0.518%	
CC(=O)Nc1ccc(/C=N/Nc2nc3ccccc3s2)cc1		inconclusive: 31.6 µM [falling, single point]
COc1ccc(CSc2nnc(N)s2)cc1F	inconclusive: 4.88%	
O=C(N/N=C/c1ccc(Cl)cc1)c1cc(-c2cccnc2)nc2ccccc12		inconclusive: 4.47 µM [falling, partial curve, poor fit]
S=c1nc(-c2ccco2)[nH][nH]1	inconclusive: 26.9%	
O=C(Nc1cnccn1)c1csc2ccccc12	inconclusive: -14.1%	
Fc1ccc(CN2CCN(C(c3ccccc3)c3ccccc3)CC2)cc1	inactive: 8.37%	
Cc1cc(C)n(-c2ccccc2[N+](=O)[O-])n1	inactive: -0.307%	
COc1ccc(/C=C2\Oc3cc(OCC(=O)N4CCC[C@H]4C(=O)O)ccc3C2=O)c(OC)c1OC		inconclusive: 15.8 µM [falling, partial curve, poor fit]
COC(=O)c1ccc(C(=O)OC)c(NC(=O)COC(=O)C23CC4CC(CC(O)(C4)C2)C3)c1	inconclusive: 0.251%	
O=C(NC1CCCCCC1)c1ccc[nH]c1=S		inconclusive: 11.2 µM [falling, partial curve, poor fit]
COCCNC(=O)NC1(C(F)(F)F)Oc2ccc(Cl)cc2O1 (configuration not stated)	inconclusive: 1.02%	

Structure (SMILES)	activity change, negative = inhibition	Potency
CN(C(=O)CCOc1ccccc1)c1c(N)n(Cc2ccccc2)c(=O)[nH]c1=O	inconclusive: -7.55%	
CCCc1cc(=O)oc2c3c(c(Cl)cc12)OCN(CCCO)C3	inconclusive: -8.84%	
CCOC(=O)C1(CCOc2ccccc2)CCN(Cc2cccs2)CC1	inactive: 1.75%	
Cn1c(CC(=O)Nc2ccccc2)cc2ccccc21	inactive: -4.27%	
Cc1ccc(NC(=O)CSc2ncn[nH]2)cc1S(=O)(=O)N1CCOCC1	inconclusive: 1.92%	
O=C(Nc1cccc(S(=O)(=O)NC2=NCCC2)c1)c1cn(-c2ccccc2)nc1-c1ccc(F)cc1	inconclusive: -8.02%	
COc1ccccc1Nc1nn2c(=O)c3ccc(C(=O)NCc4cccs4)cc3nc2s1		inconclusive: 7.94 µM [falling, partial curve]
Cc1nn(C(C)C)c(C)c1CN1CCC(C(=O)Nc2cccc(-c3cccc(F)c3)c2)CC1		inconclusive: 25.1 µM [falling, partial curve, poor fit]
COc1ccccc1/C=C/C=N/n1c(-c2ccccn2)n[nH]c1=S		inconclusive: 35.5 µM [rising, single point]
COc1ccc2c(c1)OC[C@H]1[C@H]2N2C(=O)c3cc(OC)c(OC)cc3NC(=O)[C@@]2(C)[C@H]1c1ccccc1	inconclusive: 9.55%	
Cc1cccc(C)c1OC(=O)Cc1ccccc1[N+](=O)[O-]	inconclusive: -2.26%	
N#Cc1cccc(NC(=O)CSc2ccccc2)c1	inconclusive: 2.31%	
COc1ccc(Cn2nnnc2C(c2cc3cc(C)ccc3[nH]c2=O)N2CCOCC2)cc1 (configuration not stated)	inconclusive: -8.96%	
O=S(=O)(Nc1nc2ccccc2nc1Nc1cccc(S(=O)(=O)N2CCCCC2)c1)c1ccccc1	inactive: 5.51%	
Cc1cc(C(=O)NNC(=O)CN2C(=O)NC(C)(c3ccccc3)C2=O)c(C)o1 (configuration not stated)	inconclusive: 1.1%	
COc1cc(OC)cc(C(=O)N[C@H](C(=O)OCC(=O)c2ccc(C)c([N+](=O)[O-])c2)C(C)C)c1	inconclusive: -0.0091%	
Cc1ccc(S(=O)(=O)N2[C@@H](c3ccc(Br)cc3)C(C(=O)O)=C[C@H]2CC2CCCC2)cc1	inconclusive: -17.2%	
COCCNC(=O)/C(C#N)=C/c1c(N2CCCCCC2)nc2ccccn2c1=O	inactive: 5.53%	
CCOC(=O)C1=C(C)Nc2sc(C(=O)c3ccc(Br)cc3)c(N)c2C1c1ccc(C(=O)OC)cc1 (configuration not stated)	inconclusive: 11.4%	
NS(=O)(=O)c1ccc(N=Cc2c(O)c3ccccc3oc2=O)cc1		inconclusive: 8.91 µM [falling, partial curve]
COC(=O)C1=C(C)NC2=C(C(=O)CCC2)C1c1coc2ccccc2c1=O (configuration not stated)	inconclusive: 5.11%	
O=C(/C=C/c1ccc(Cl)c([N+](=O)[O-])c1)Nc1ccc(N2CCCC2)cc1	inconclusive: -24.9%	
Cc1cccc(/N=C2/NC(=O)C(Cc3ccccc3)S2)n1 (configuration not stated)	inconclusive: 3.07%	
O=C(CN1C(=O)NC(Cc2c[nH]c3ccccc23)C1=O)Nc1cccc(S(=O)(=O)N2CCCCCC2)c1 (configuration not stated)	inconclusive: -18.9%	
Cc1ccc([N+](=O)[O-])cc1NC(=S)NC(=O)C(C)(C)C	inactive: -4.82%	
CC1CCN(C(=O)COC(=O)[C@H](C)NS(=O)(=O)/C=C/c2ccccc2)CC1		inconclusive: 11.6 µM [rising, partial curve]

Shown bar-delimited: part of the list above.
Structure (SMILES) | activity change, negative = inhibition | Potency
COc1cc(OC)cc(C(=O)N[C@H](C(=O)OCC(=O)c2ccc(C)c([N+](=O)[O-])c2)C(C)C)c1 | inconclusive: -0.0091% | 
Cc1ccc(S(=O)(=O)N2[C@@H](c3ccc(Br)cc3)C(C(=O)O)=C[C@H]2CC2CCCC2)cc1 | inconclusive: -17.2% | 
COCCNC(=O)/C(C#N)=C/c1c(N2CCCCCC2)nc2ccccn2c1=O | inactive: 5.53% | 
CCOC(=O)C1=C(C)Nc2sc(C(=O)c3ccc(Br)cc3)c(N)c2C1c1ccc(C(=O)OC)cc1 (configuration not stated) | inconclusive: 11.4% | 
NS(=O)(=O)c1ccc(N=Cc2c(O)c3ccccc3oc2=O)cc1 |  | inconclusive: 8.91 µM [falling, partial curve]
COC(=O)C1=C(C)NC2=C(C(=O)CCC2)C1c1coc2ccccc2c1=O (configuration not stated) | inconclusive: 5.11% | 

Later entries:

Structure (SMILES)	activity change, negative = inhibition	Potency
COc1ccc(/C=N/NC(=S)N[C@H]2CC3CCC2C3)cc1 (some centres not stated)	inconclusive: -115%	
Cc1nc(NC(=O)c2ccccc2)nc2cc3c(cc12)OCO3		inconclusive: 1.46 µM [rising, full curve, poor fit]
COc1ccc(NC(=O)C2CCN(S(=O)(=O)c3cccc4nonc34)CC2)cc1OC		inconclusive: 14.1 µM [falling, single point]
COc1ccc(/C=C/C(=O)O)cc1S(=O)(=O)N1CCCCC1	inconclusive: -26.9%	
O=C(NNC(=O)c1ccccc1OCc1ccccc1)c1ccccc1O		inconclusive: 25.1 µM [falling, single point]
C=CCN=C(NC#N)SCC(=O)NCc1ccccc1	inconclusive: 1.24%	
C[C@@H]1CN([C@@H](C)CO)C(=O)c2cc(NC(=O)C3CC3)ccc2O[C@@H]1CN(C)Cc1ccc(Cl)c(Cl)c1	inactive: -1.37%	
C#CCSc1nsc(SCC#C)c1C#N	inconclusive: -20.4%	
COc1ccc(-c2nn(-c3ccccc3)cc2C(=O)NCC(c2cccs2)N2CCOCC2)cc1 (configuration not stated)	inconclusive: 3.21%	
O=C(O)c1cccc(-c2ccc(/C=c3/sc4nc5ccccc5n4c3=O)o2)c1	inconclusive: 2.08%	
COc1ccc(N2CCN(C(=O)Cn3nnc(-c4ccccc4N)n3)CC2)cc1		inconclusive: 22.4 µM [falling, partial curve, poor fit]
C/C(=N\NC(=O)c1ccc(F)cc1)c1ccccn1		inconclusive: 25.1 µM [falling, partial curve]
FC(F)(F)C1CCCN(c2nsc3ccccc23)C1 (configuration not stated)		inconclusive: 1.41 µM [rising, full curve, poor fit]
COc1cc(NC(=O)CN2CCN(c3ccccc3F)CC2)cc(OC)c1	inconclusive: 1.54%	
CCC(OC(=O)c1cc2sccc2n1C)C(=O)NCc1ccco1 (configuration not stated)	inconclusive: 3.16%	
COc1ccc(-c2oc(=O)c3cc(OC)c(OC)cc3c2/C=C/c2ccc(F)cc2)cc1	inconclusive: 0.0636%	
CC(C)(C)c1ccc(O)c(O)c1	inactive: -8.76%	
CSc1cccc(-n2cc(-c3ccc4c(c3)OCO4)[nH]c2=O)c1		inconclusive: 25.1 µM [falling, single point]
CC(Nc1nc(=S)nc(Nc2ccc(F)cc2)[nH]1)c1ccccc1 (configuration not stated)	inactive: -2.12%	
O=C(COc1ccc(Cl)c(Cl)c1)NN1C(=O)C2C(C1=O)C1C=CC2C12CC2 (configuration not stated)	inactive: -0.659%	
Cc1ccc(C)c(S(=O)(=O)N2C(=S)NC(=O)C2CC(C)C)c1 (configuration not stated)	inconclusive: 17.9%	
Cc1ccc2c(c1)N(CCC(=O)NCc1ccco1)C(=O)CO2	inconclusive: -1.19%	
CC[C@@H]1C(c2ccc(F)cc2)=NN(c2ccc(Br)cc2)[C@H]1C(=O)N1CCOC1=O	inactive: 10.1%	
O=C(Nc1nnc(SCc2ccc(F)cc2)s1)C1Cc2ccccc2CN1C(=O)c1ccco1 (configuration not stated)	inactive: 5.5%	
COc1ccc(N(CC(=O)N2CCOCC2)S(=O)(=O)c2ccccc2)cc1Cl	inconclusive: 2.5%	
